{
  "source": "patent US20020132974A1",
  "about": "(priority 1995, published 2002)",
  "test": "Fmoc solid-phase peptide synthesis; PepSyn-KA pre-derivatised with the FMOC C-terminal amino acid; 4-(2',4'-dimethoxyphenyl-Fmoc-aminomethyl)phenoxy resin; pre-formed Fmoc-amino acid Pfp esters / dihydroxybenzotriazole esters; DIC/HOBt",
  "conditions": "whole synthesis, reverse-phase HPLC on Dynamax C8 300A analytical column, scale 0.5 mmol",
  "note": "Strings that start with PEPTIDE1 are HELM notation: dots part the residues, brackets hold end groups and non-standard residues.",
  "data": [
    {"substance": "PEPTIDE1{[ac].Q.A.T.N.R.N.T.D.G.S.T.D.Y.G.I.L.Q.I.N.S.R.[am]}$$$$V2.0", "values": [
      {"measurement": "final HPLC purity", "result": ">99", "unit": "%"}
    ]}
  ]
}
